# About 7,500 (2.1%) of roughly 360,000 compounds were called active. Inconclusive means that the source gave no clear call. Such entries were picked first, then a sample of the others. Calls come from the whole dose curve; as a rule, active = well fitted inhibition curve with a large enough effect; inconclusive = small, poorly fitted or top-dose-only effect, or effect the other way; inactive = flat fitted curve, though single readings scatter. Potencies of inconclusive entries are doubtful fits and often do not repeat.
# Assay: Nrf2 qHTS screen for inhibitors; note: nearly all actives have a fitted effect of over 60% in size
# Details: A549 ARE-Fluc reporter, luciferase luminescence, 18-24 h; activity change, negative = inhibition: at 46 µM (top of the series)
# In short: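 Concentration-response testing used A549 ARE_Fluc cells at 5000 cells/well. Following an 18-24 h compound incubation, viability was read by fluorescence (Ex 405/Em 525) and luciferase output by luminescence.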
# % is set by controls: 0 for no effect and ±100 for the full control effect; potency is the fitted concentration of half-maximal effect.
Structure (SMILES),Potency,"activity change, negative = inhibition"
COc1ccc(CCn2c(-n3nc(C)cc3C)nc3c2c(=O)[nH]c(=O)n3C)cc1,"inconclusive: 2.06 µM [falling, single point]",–
CC1=Nc2cc(C(=O)NCCc3ccc(Cl)cc3)ccc2Sc2c(C)ccc(C)c21,–,inactive: -22.1%
O=C(C[n+]1ccc(/C=N/O)cc1)N(Cc1ccccc1)Cc1ccccc1,"inconclusive: 29.1 µM [falling, single point]",–
CCOc1cccc(NC(=O)C(Cc2cccs2)c2nn[nH]n2)c1 (stereo not given),"inconclusive: 1.46 µM [falling, partial curve, poor fit]",–
CN(C)c1nc(SCCOC(=O)Nc2ccccc2)nc(N(C)C)n1,"inconclusive: 23.1 µM [falling, single point]",–
Cc1nc(-c2ccc(NC(=O)c3ccccc3)cc2)cs1,"inconclusive: 1.03 µM [activator, partial curve]",–
O=C(COC(=O)c1ccccc1-n1cnnn1)c1ccc(Br)cc1,"inconclusive: 20.6 µM [activator, single point]",–
Cn1cc([N+](=O)[O-])c(C(=O)NNC(=O)c2ccc([N+](=O)[O-])cc2)n1,"inconclusive: 5.8 µM [falling, partial curve, poor fit]",–
C=CCNC(=O)C1CCN(c2nc(C)cc(-c3ccccc3)n2)CC1,"inconclusive: 0.517 µM [activator, full curve, poor fit]",–
O=C(c1ccc2nsnc2c1)N1CCN(c2ccc([N+](=O)[O-])cc2)CC1,active: 23.1 µM,–
CC1(C)OC(=O)C(=NNc2ccc(Br)cc2)C(=O)O1,"inconclusive: 4.11 µM [falling, full curve, poor fit]",–
CSc1ccccc1C(=O)Nc1c(C)cccc1C,"inconclusive: 1.46 µM [activator, partial curve, poor fit]",–
CC(C)CC1NC(=O)N(CC(=O)Nc2cccc(Br)c2)C1=O (stereo not given),"inconclusive: 25.9 µM [falling, partial curve, poor fit]",–
CCN1CCN(C(=O)c2cc3c(s2)-c2ccccc2S(=O)(=O)C3)CC1,–,inactive: 10.2%
NC(=O)c1nn(CC(=O)Nc2cccc(S(=O)(=O)N3CCCCCC3)c2)c(=O)c2ccccc12,"inconclusive: 9.2 µM [falling, partial curve, poor fit]",–
O=C(NC(=S)Nc1ncc(Br)cc1Br)c1cncc(Br)c1,"inconclusive: 29.1 µM [falling, single point]",–
CCOc1ccc(NC(=S)N2CCCCCC2)cc1,"inconclusive: 3.66 µM [falling, partial curve, poor fit]",–
Cc1ccc(-c2ccc(/C=C/C(=O)c3ccccc3)o2)cc1,–,inactive: -5.61%
O=[N+]([O-])c1cc(S(=O)(=O)NCCCN2CCOCC2)ccc1Cl,"inconclusive: 18.4 µM [falling, single point]",–
Cc1ccc(C)c(NS(=O)(=O)c2cc(C(=O)NCCSC3CCCCC3)ccc2C)c1,"inconclusive: 18.4 µM [falling, single point]",–
Cc1nc2ccccn2c1C(=O)N/N=C/c1ccc([N+](=O)[O-])cc1,"inconclusive: 29.1 µM [falling, single point]",–
COc1ccccc1C(=O)OCc1cc(=O)n2nc(C(C)C)sc2n1,"inconclusive: 20.6 µM [activator, single point]",–

Structure (SMILES),Potency,"activity change, negative = inhibition"
Cc1ccc(Cn2c(=N)c(C(=O)NC3CCCC3)cc3c(=O)n4ccccc4nc32)cc1,–,inactive: 5%
CCc1ccc(C(C)NC(=O)C2CCCC2)cc1 (stereo not given),"inconclusive: 11.6 µM [falling, partial curve, poor fit]",–
COc1cccc(/C=N/NC(=O)c2cc3cc([N+](=O)[O-])ccc3s2)c1O,active: 14.6 µM,–
CC1(/[N+]([O-])=C/c2ccc(Cl)cc2Cl)CCCCC1=O (stereo not given),–,inactive: 4.32%
O=C1C(c2ccnc3ccccc23)=C(O)c2ccccc21,"inconclusive: 1.3 µM [activator, full curve]",–
C#CC[N+](C)(C)CCCCCCCC,"inconclusive: 18.4 µM [falling, single point]",–
O=C(N/N=C/C(Cl)=C\c1ccccc1)c1cnccn1,"inconclusive: 25.9 µM [activator, partial curve, poor fit]",–
CC(=O)Nc1ccc(OCCCNC(=O)c2c(-c3ccccc3)noc2C)cc1,"inconclusive: 25.9 µM [falling, partial curve, poor fit]",–
CC(C)c1ccc(S(=O)(=O)N2CCN(C(=O)c3ccc(N4CCCC4)c([N+](=O)[O-])c3)CC2)cc1,"inconclusive: 16.4 µM [falling, single point]",–
CSc1ccccc1NC(=O)CN(C)C(=O)c1ccc(NC(=O)c2cccs2)cc1,"inconclusive: 6.51 µM [falling, full curve, poor fit]",–
CC(C)C(=O)NC(NC(=S)Nc1cccc2cccnc12)C(Cl)(Cl)Cl (stereo not given),"inconclusive: 23.1 µM [falling, partial curve, poor fit]",–
Nc1ccc2nc(CCc3ccccc3)[nH]c2c1,"inconclusive: 18.4 µM [activator, single point]",–
Cc1ccc(C)c(CNC(=O)c2cc3ccccn3n2)c1,"inconclusive: 29.1 µM [activator, single point]",–
CCOC(=O)COc1ccccc1/C=N/Nc1nnc2c3ccccc3n(C)c2n1,"inconclusive: 0.517 µM [falling, full curve, poor fit]",–
Cc1cc(OCC(=O)N2CCc3ccccc3C2)c(C)cc1Br,"inconclusive: 0.731 µM [activator, partial curve, poor fit]",–
COc1ccc(NC(=O)Cn2cc(S(=O)(=O)Cc3ccc(F)cc3)c3ccccc32)cc1OC,"inconclusive: 25.9 µM [falling, partial curve, poor fit]",–
N#Cc1sc2nc3c(c(-c4ccco4)c2c1N)CCCC3,"inconclusive: 29.1 µM [falling, single point]",–
O=C(Nc1ccc(C(F)(F)F)cc1)N1CCN(c2ccnc3cc(Cl)ccc23)CC1,active: 18.4 µM,–
Cc1cc(C(=O)N2CCN(c3cccc(Cl)c3)CC2)c(C)o1,"inconclusive: 11.6 µM [falling, partial curve, poor fit]",–
C/C(=N\NC(=O)Cc1ccc(Cl)cc1)c1ccccc1O,"inconclusive: 29.1 µM [falling, single point]",–
Cc1ccc2[nH]cc(CCNC(=O)c3ccc4c(c3)OCO4)c2c1,"inconclusive: 23.1 µM [falling, single point]",–
Cc1ccc(Nc2nc3c(s2)CCC3)c(C)c1,"inconclusive: 3.26 µM [activator, partial curve, poor fit]",–

# Reformatted: 15 of the compounds above.
Structure (SMILES) | Potency | activity change, negative = inhibition
CCOc1ccc(NC(=S)N2CCCCCC2)cc1 | inconclusive: 3.66 µM [falling, partial curve, poor fit] | –
Cc1ccc(-c2ccc(/C=C/C(=O)c3ccccc3)o2)cc1 | – | inactive: -5.61%
O=[N+]([O-])c1cc(S(=O)(=O)NCCCN2CCOCC2)ccc1Cl | inconclusive: 18.4 µM [falling, single point] | –
Cc1ccc(C)c(NS(=O)(=O)c2cc(C(=O)NCCSC3CCCCC3)ccc2C)c1 | inconclusive: 18.4 µM [falling, single point] | –
Cc1nc2ccccn2c1C(=O)N/N=C/c1ccc([N+](=O)[O-])cc1 | inconclusive: 29.1 µM [falling, single point] | –
COc1ccccc1C(=O)OCc1cc(=O)n2nc(C(C)C)sc2n1 | inconclusive: 20.6 µM [activator, single point] | –
Cc1ccc(Cn2c(=N)c(C(=O)NC3CCCC3)cc3c(=O)n4ccccc4nc32)cc1 | – | inactive: 5%
CCc1ccc(C(C)NC(=O)C2CCCC2)cc1 (stereo not given) | inconclusive: 11.6 µM [falling, partial curve, poor fit] | –
COc1cccc(/C=N/NC(=O)c2cc3cc([N+](=O)[O-])ccc3s2)c1O | active: 14.6 µM | –
CC1(/[N+]([O-])=C/c2ccc(Cl)cc2Cl)CCCCC1=O (stereo not given) | – | inactive: 4.32%
O=C1C(c2ccnc3ccccc23)=C(O)c2ccccc21 | inconclusive: 1.3 µM [activator, full curve] | –
C#CC[N+](C)(C)CCCCCCCC | inconclusive: 18.4 µM [falling, single point] | –
O=C(N/N=C/C(Cl)=C\c1ccccc1)c1cnccn1 | inconclusive: 25.9 µM [activator, partial curve, poor fit] | –
CC(=O)Nc1ccc(OCCCNC(=O)c2c(-c3ccccc3)noc2C)cc1 | inconclusive: 25.9 µM [falling, partial curve, poor fit] | –
CC(C)c1ccc(S(=O)(=O)N2CCN(C(=O)c3ccc(N4CCCC4)c([N+](=O)[O-])c3)CC2)cc1 | inconclusive: 16.4 µM [falling, single point] | –

# Carrying on:

Structure (SMILES),Potency,"activity change, negative = inhibition"
CN(C)c1nc(N(C)C)nc(N(C#N)CCOc2ccccc2)n1,"inconclusive: 10.3 µM [falling, partial curve]",–
CC1Cc2cc(S(=O)(=O)NCc3ccc(N(C)C)cc3)ccc2N1C(=O)C1CCC1 (stereo not given),active: 23.1 µM,–
CC(C)(C)NC(=O)CN(C(=O)Cn1nnc(-c2ccc(Cl)cc2)n1)C1CCN(Cc2ccccc2)CC1,–,inactive: -6.19%
COc1ccccc1CNC(=O)c1cnn2c(C(F)F)cc(C)nc12,"inconclusive: 25.9 µM [falling, single point]",–
O=C(O)c1ccc(CSc2nnc(-c3ccc(Cl)cc3)o2)cc1,–,inactive: 2.65%
O=C1CC[C@@H]2CC3(C[C@@H]4CCN1[C@H]24)Nc1cc([N+](=O)[O-])ccc1NC3=NC1CCCCC1 (stereo not given in full),–,inactive: 5.71%
O=C(O)c1ccc(/C=C2\COc3ccccc3C2=O)cc1,"inconclusive: 7.31 µM [falling, partial curve, poor fit]",–
O=C(O)C[C@@H](CNC(=O)COc1ccc2ccc(=O)oc2c1)c1ccc(Cl)cc1,–,inactive: 16.6%
O=C(Nc1ccc(Cl)cc1)N1CCC(c2ccccc2)C1 (stereo not given),"inconclusive: 25.9 µM [falling, single point]",–
CN1CCc2c(sc3nc(SCC(=O)N4CCOCC4)nc(N)c23)C1,–,inactive: -12.2%
O=C(Nc1ccc(Br)cc1)c1cccc(N2C(=O)C3C4C=CC(C4)C3C2=O)c1 (stereo not given),"inconclusive: 25.9 µM [falling, partial curve]",–
CC1Cc2ccccc2N1C(=O)CSc1ncc(-c2ccc(F)cc2)n1C (stereo not given),"inconclusive: 0.411 µM [activator, full curve, poor fit]",–
S=c1nc(-c2ccccc2Br)[nH][nH]1,–,inactive: -13.9%
c1ccc2c(Nc3ccc4c(c3)OCCO4)c3c(nc2c1)CCCC3,"inconclusive: 0.164 µM [activator, full curve, poor fit]",–
Cc1cccc(C)c1NC(=O)C1CCN(C(=O)c2cccs2)CC1,"inconclusive: 0.206 µM [falling, partial curve, poor fit]",–
O=[N+]([O-])c1cccc(-c2ccc(/C=N/Nc3nc(N4CCCCC4)nc(N4CCCCC4)n3)o2)c1,"inconclusive: 20.6 µM [falling, partial curve, poor fit]",–
CC(C)NC(=O)c1ccc(COc2ccc(C(C)(C)C)cc2)o1,"inconclusive: 3.26 µM [activator, full curve]",–
Cc1cc(-c2ccc(S(=O)(=O)Nc3ccc(Cl)cc3C)cc2)on1,active: 20.6 µM,–
CC(O)CNc1ccc(-c2n[nH]c(=O)c3ccccc23)cc1[N+](=O)[O-] (stereo not given),"inconclusive: 7.31 µM [falling, partial curve, poor fit]",–
CCOc1ccc2nc(N/C(N)=N/S(C)(=O)=O)nc(C)c2c1,"inconclusive: 0.58 µM [falling, full curve, poor fit]",–
CCOc1ccc(NC(=O)c2ccc(F)c(S(=O)(=O)N3CCN(c4ccccn4)CC3)c2)cc1,"inconclusive: 13 µM [falling, partial curve]",–
